Laboratory results reported in PubChem BioAssay AID190 (DTP/NCI, 2004).
The list is a part of this screen's results and no random one: it is rich in T/C values a quarter to a half above the control, in often repeated tests (any T/C) and in doses without a T/C. Further doses and runs are listed elsewhere. T/C gives the treated animals as a percentage of the vehicle group. Some entries give survivors of the animals treated and no T/C: the source files T/C as zero there, which appears to mark a toxic dose or a test without result, not a measured value. Some survivor counts are full or nearly so, which does not show that the dose was tolerated: the source hardly ever lists a survival T/C far under the control, and the zero likely stands for such cases as well. Survivors were counted at the toxicity check, usually on the fifth day, unless a day is given; later deaths do not show. Schedule codes are those of the source, read here as Q, the interval in days (D) or hours (H), X, the number of doses. Marks such as (2×) stand for listed records that agree. Some entries were tested several times; their values stand side by side, smallest first. For survival time, the PubChem record calls one and a half times the control and up active, and a quarter to a half above the control has no call in these data; cut-offs in other NCI protocols can differ. Some T/C values are followed by the survivors on the day toxicity was checked, most often the fifth; without a count, all were alive then.

Tested on: AKR/Lw mice, AKR lymphoma ip, median survival T/C
Experiment: NCI In Vivo Anticancer Drug Screen. Data for tumor model Lymphoma AKR (Transplanted) (intraperitoneal) in AKR/Lw mice
Settings: T/C endpoint: median survival time, higher T/C = longer survival
Experimental: The antitumor activity of compounds was measured in mice bearing transplantable tumors. Survival or tumor size were measured and the results are expressed as the measurement made in the treated group (T) divided by the measurement made in the vehicle treated control group (C). The tumor model used in this assay is Lymphoma AKR (Transplanted) (intraperitoneal) in AKR/Lw mice

[1] = dose: 200.0 mg/kg/injection, schedule: Q01DX001 (ip), vehicle: Klucel (hydroxypropylcellulose) (HPC)
[2] = dose: 400.0 mg/kg/injection, schedule: Q01DX001 (ip), vehicle: Klucel (hydroxypropylcellulose) (HPC)
[3] = dose: 200.0 mg/kg/injection, schedule: Q01DX001 (ip), vehicle: saline
[4] = dose: 150.0 mg/kg/injection, schedule: Q01DX001 (ip), vehicle: saline with Tween-80
[5] = dose: 50.0 mg/kg/injection, schedule: Q04DX003 (ip), vehicle: Klucel (hydroxypropylcellulose) (HPC)
[6] = dose: 100.0 mg/kg/injection, schedule: Q04DX003 (ip), vehicle: Klucel (hydroxypropylcellulose) (HPC)

Compound: COc1ccc(NC(=S)Nc2ccccn2)cc1
- survivor count [1]: 5 of 10
- survivor count [2]: 10 of 10

Compound: C[N+]1(C)Cc2ccccc2-c2ccccc2C1
- survivor count (dose: 100.0 mg/kg/injection, schedule: Q01DX001 (ip), vehicle: saline): 1 of 10
- survivor count [3]: 4 of 10

Compound: COc1ccc(-n2c(=S)[nH]c3ccccc3c2=O)cc1
- survivor count (dose: 300.0 mg/kg/injection, schedule: Q04DX003 (ip), vehicle: Klucel (hydroxypropylcellulose) (HPC)): 10 of 10

Compound: OCC1=C(CO)C2(Cl)C(Cl)=C(Cl)C1(Cl)C2(Cl)Cl
- survivor count (dose: 100.0 mg/kg/injection, schedule: Q01DX001 (ip), vehicle: Klucel (hydroxypropylcellulose) (HPC)): 10 of 10

Compound: Cc1ccc(N2C(=O)CC(Sc3ccccc3N)C2=O)cc1 (stereo not drawn)
- survivor count [1]: 10 of 10
- survivor count [2]: 10 of 10

Compound: CCCCCCCCCCCCCCCC(=O)OCC1OC(n2ccc(N)nc2=O)C(O)C1O (stereo not drawn)
- T/C (dose: 0.31 mg/kg/injection, schedule: Q01DX015 (ip), vehicle: saline with Tween-80): 131 % of control
- T/C (dose: 1.25 mg/kg/injection, schedule: Q01DX010 (ip), vehicle: saline with Tween-80): 130 % of control
- T/C (dose: 2.5 mg/kg/injection, schedule: Q01DX010 (ip), vehicle: saline with Tween-80): 136 and 147 % of control
- T/C (dose: 7.5 mg/kg/injection, schedule: Q01DX005 (ip), vehicle: saline with Tween-80, evaluated on day 5): 147 and 200 % of control
- T/C (dose: 7.5 mg/kg/injection, schedule: Q01DX005 (ip), vehicle: saline with Tween-80, evaluated on day 60): 126 and 165 % of control [9 of 10 alive]
- T/C (dose: 15.0 mg/kg/injection, schedule: Q01DX005 (ip), vehicle: saline with Tween-80, evaluated on day 5): 238 and 297 % of control
- T/C (dose: 15.0 mg/kg/injection, schedule: Q01DX005 (ip), vehicle: saline with Tween-80, evaluated on day 60): 136 and 148 % of control
- T/C (dose: 25.0 mg/kg/injection, schedule: Q01DX001 (ip), vehicle: saline with Tween-80, evaluated on day 5): 128 % of control
- T/C (dose: 25.0 mg/kg/injection, schedule: Q01DX001 (ip), vehicle: saline with Tween-80, evaluated on day 60): 128 and 135 % of control
- T/C (dose: 25.0 mg/kg/injection, schedule: Q14DX003 (ip), vehicle: saline with Tween-80): 131 % of control
- T/C (dose: 25.0 mg/kg/injection, schedule: Q14DX004 (ip), vehicle: saline with Tween-80): 142 % of control
- T/C (dose: 30.0 mg/kg/injection, schedule: Q01DX005 (ip), vehicle: saline with Tween-80, evaluated on day 5): 210 and 303 % of control
- T/C (dose: 30.0 mg/kg/injection, schedule: Q01DX005 (ip), vehicle: saline with Tween-80, evaluated on day 60): 176 and 210 % of control
- survivor count (dose: 30.0 mg/kg/injection, schedule: Q01DX015 (ip), vehicle: saline with Tween-80): 10 of 10
- T/C (dose: 37.5 mg/kg/injection, schedule: Q01DX001 (ip), vehicle: saline with Tween-80): 132 % of control
- survivor count (dose: 40.0 mg/kg/injection, schedule: Q01DX010 (ip), vehicle: saline with Tween-80): 10 of 10
- T/C (dose: 50.0 mg/kg/injection, schedule: Q01DX001 (ip), vehicle: saline with Tween-80, evaluated on day 5): 145, 158, 192 % of control
- T/C (dose: 50.0 mg/kg/injection, schedule: Q01DX001 (ip), vehicle: saline with Tween-80, evaluated on day 60): 158 and 272 % of control
- T/C (dose: 50.0 mg/kg/injection, schedule: Q09DX002 (ip), vehicle: saline with Tween-80): 129 % of control
- T/C (dose: 50.0 mg/kg/injection, schedule: Q14DX004 (ip), vehicle: saline with Tween-80): 140 % of control
- survivor count (dose: 60.0 mg/kg/injection, schedule: Q01DX005 (ip), vehicle: saline with Tween-80): 9 of 10
- T/C (dose: 75.0 mg/kg/injection, schedule: Q01DX001 (ip), vehicle: saline with Tween-80, evaluated on day 5): 72, 115, 155, 163, 208 % of control
- T/C (dose: 75.0 mg/kg/injection, schedule: Q01DX001 (ip), vehicle: saline with Tween-80, evaluated on day 60): 155, 160, 272 % of control
- T/C (dose: 75.0 mg/kg/injection, schedule: Q09DX002 (ip), vehicle: saline with Tween-80): 135 % of control
- survivor count (dose: 80.0 mg/kg/injection, schedule: Q01DX010 (ip), vehicle: saline with Tween-80): 10 of 10
- T/C (dose: 100.0 mg/kg/injection, schedule: Q01DX001 (ip), vehicle: saline with Tween-80, evaluated on day 5): 105, 177, 201, 246, 247 % of control
- T/C (dose: 100.0 mg/kg/injection, schedule: Q01DX001 (ip), vehicle: saline with Tween-80, evaluated on day 60): 246 and 272 % of control
- survivor count (dose: 120.0 mg/kg/injection, schedule: Q01DX005 (ip), vehicle: saline with Tween-80): 10 of 10
- T/C [4]: 103, 167, 169, 327 % of control
- survivor count [4]: 6 of 10
- survivor count (dose: 240.0 mg/kg/injection, schedule: Q01DX005 (ip), vehicle: saline with Tween-80): 5 of 10
- survivor count (dose: 300.0 mg/kg/injection, schedule: Q01DX001 (ip), vehicle: saline with Tween-80): 5 of 10
- survivor count (dose: 450.0 mg/kg/injection, schedule: Q01DX001 (ip), vehicle: saline with Tween-80): 3 of 10
- survivor count (dose: 600.0 mg/kg/injection, schedule: Q01DX001 (ip), vehicle: saline with Tween-80): 0 of 10

Compound: NC(CSC(c1ccccc1)(c1ccccc1)c1ccccc1)C(=O)O (stereo not drawn)
- T/C (dose: 2.5 mg/kg/injection, schedule: Q01DX009 (ip), vehicle: Klucel (hydroxypropylcellulose) (HPC)): 135 and 137 % of control
- T/C (dose: 5.0 mg/kg/injection, schedule: Q01DX009 (ip), vehicle: Klucel (hydroxypropylcellulose) (HPC)): 137 % of control [9 of 10 alive]
- T/C (dose: 10.0 mg/kg/injection, schedule: Q01DX009 (ip), vehicle: Klucel (hydroxypropylcellulose) (HPC)): 126 and 137 % of control [9 of 10 alive]
- survivor count (dose: 18.0 mg/kg/injection, schedule: Q01DX009 (ip), vehicle: saline): 10 of 10
- survivor count (dose: 25.0 mg/kg/injection, schedule: Q04DX003 (ip), vehicle: Klucel (hydroxypropylcellulose) (HPC)): 10 of 10
- survivor count (dose: 37.5 mg/kg/injection, schedule: Q01DX009 (ip), vehicle: saline): 10 of 10
- survivor count (dose: 40.0 mg/kg/injection, schedule: Q01DX009 (ip), vehicle: Klucel (hydroxypropylcellulose) (HPC)): 10 of 10
- survivor count (dose: 50.0 mg/kg/injection, schedule: Q01DX009 (ip), vehicle: saline): 10 of 10 (2×)
- T/C [5]: 100 (2×), 100 [8 of 10 alive], 115, 135 % of control
- survivor count [5]: 10 of 10
- survivor count (dose: 75.0 mg/kg/injection, schedule: Q01DX009 (ip), vehicle: saline): 10 of 10
- survivor count (dose: 80.0 mg/kg/injection, schedule: Q01DX009 (ip), vehicle: Klucel (hydroxypropylcellulose) (HPC)): 9 of 10
- survivor count (dose: 100.0 mg/kg/injection, schedule: Q01DX009 (ip), vehicle: saline): 8 of 10 and 9 of 10 (2×)
- T/C [6]: 89 [7 of 10 alive], 118 [9 of 10 alive], 137 % of control
- survivor count [6]: 10 of 10
- T/C (dose: 100.0 mg/kg/injection, schedule: Q04DX003 (ip), vehicle: saline): 132 % of control
- survivor count [1]: 8 of 10
- survivor count [3]: 7 of 10
- survivor count (dose: 200.0 mg/kg/injection, schedule: Q04DX003 (ip), vehicle: Klucel (hydroxypropylcellulose) (HPC)): 4 of 10, 7 of 10, 8 of 10
- survivor count (dose: 200.0 mg/kg/injection, schedule: Q04DX003 (ip), vehicle: saline): 10 of 10
- survivor count [2]: 4 of 10
- survivor count (dose: 400.0 mg/kg/injection, schedule: Q01DX001 (ip), vehicle: saline): 4 of 10
- survivor count (dose: 400.0 mg/kg/injection, schedule: Q04DX003 (ip), vehicle: saline): 1 of 10
- survivor count (dose: 600.0 mg/kg/injection, schedule: Q01DX001 (ip), vehicle: Klucel (hydroxypropylcellulose) (HPC)): 4 of 10

Compound: COc1cc2c(cc1OC)C13CCN4CC5=CCOC6CC(=O)N2C1C6C5CC43 (stereo not drawn) (tested in a mixture with another compound)
- survivor count [1]: 8 of 10
- survivor count [2]: 3 of 10
